# Test results reported in PubChem BioAssay AID445 (National Center for Advancing Translational Sciences (NCATS), 2006).
# The other results are listed elsewhere or left out. Further columns of the screen follow, without active or inactive calls. Most of these compounds were active or inconclusive in the main read-out, so they are no random draw. Potencies come from curve fits of mixed quality, noted in brackets.
# Experiment: IkB Signaling
# Conditions: ABC-DLBCL IkBa-CBG/CBR dual luciferase ratio (green luciferase fused to IkBa over red control in OCI-Ly3 lymphoma cells), 4 h
# Procedure, shortened: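 In this assay, an IκBα–CBG68 fusion accumulates when IKK-driven degradation is blocked; native CBR normalizes for cell number. OCI-Ly3 cells were treated 4 h with compound and doxycycline, then green and red light read after Chroma-Glo addition.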
# [1] = measured here: control luc red channel unless noted
smiles,measurement,setting,value
COc1ccccc1NC(=O)C1=C(C)Nc2nc(SCC(=O)c3ccc(C)cc3)nn2C1c1ccccc1C (stereo not drawn),AC50,[1],"0.251 µM [falling, full curve]"
COc1ccc(-n2cc(C(=O)N(C)c3cc(C)ccc3OC)c3ccccc3c2=O)cc1,AC50,[1],"20 µM [falling, partial curve]"
CSCCC(NS(=O)(=O)c1ccc2c(c1)oc(=O)n2C)C(=O)NCc1ccc(F)cc1 (stereo not drawn),AC50,[1],"39.8 µM [falling, partial curve, poor fit]"
COc1ccc(NC(=O)c2sc3nc(C)c(C(=O)Nc4ccc(C)cc4C)c(-c4ccccc4Cl)c3c2N)cc1,AC50,[1],"0.501 µM [falling, full curve]"
CN(C)CCN(Cc1ccccc1)S(=O)(=O)c1ccc(-c2cc(C(F)(F)F)on2)s1,AC50,[1],"31.6 µM [falling, partial curve]"
CN(C)CCNC(=O)CCCn1c(=O)c2cccn2c2ccccc21,AC50,[1],"20 µM [falling, partial curve]"
CCC(C)(C)n1nnnc1C(c1cc2ccc(C)cc2[nH]c1=O)N(Cc1cccnc1)Cc1ccco1 (stereo not drawn),AC50,[1],"25.1 µM [falling, partial curve]"
O=C(O)CCCCCNc1nc(=S)[nH]c2ccccc12,AC50,[1],"10 µM [falling, partial curve]"
Cc1ccc(CCNC(=O)c2ccc(CS(=O)(=O)c3ccc(Cl)cc3)o2)cc1,AC50,[1],"6.31 µM [falling, partial curve]"
CCOc1ccccc1NC(=O)n1ncc2cc(Cl)ccc21,AC50,[1],"15.8 µM [falling, single point]"
Cc1cc2ccccc2n1CCNC(=O)c1ccc(F)cc1,AC50,[1],"2.51 µM [falling, partial curve]"
Fc1ccc(-c2cn3cc(Cc4ccccc4Cl)sc3n2)cc1,AC50,[1],"0.501 µM [falling, full curve]"
Cc1cc(O)c(C(c2ccc(Cl)cc2)N2CCN(c3ccccc3)CC2)c(=O)n1Cc1ccco1 (stereo not drawn),AC50,[1],"39.8 µM [rising, single point] [measured here: IkB-luc green channel]"
CC1=C(c2ccc(C)cc2)S(=O)(=O)N(Cc2ccc(C(=O)Nc3ccccc3C)cc2)C1=O,AC50,[1],"3.16 µM [falling, full curve, poor fit]"
c1ccc2c(c1)oc1c(NCCCN3CCOCC3)ncnc12,AC50,[1],"15.8 µM [falling, partial curve]"
Cc1cc(C)n2nc(SCC(=O)c3ccccc3)nc2n1,AC50,[1],"10 µM [falling, partial curve]"
COc1ccc(NC(=O)Cn2c(=O)oc3cc(S(=O)(=O)N4CCCCC4C)ccc32)cc1 (stereo not drawn),AC50,[1],"3.16 µM [falling, full curve, poor fit]"
COC(=O)c1ccccc1NC(=O)CCCN1C(=O)C(c2ccccc2)Oc2cccnc21 (stereo not drawn),AC50,[1],"25.1 µM [falling, partial curve]"
CC(C)c1cc(C(=O)NC2CCCCC2)no1,AC50,[1],"7.94 µM [falling, partial curve]"
COC(=O)c1scc(-c2ccc(C)cc2)c1S(=O)(=O)Nc1cc(Cl)c(OC)cc1OC,AC50,[1],"10 µM [falling, partial curve]"
CCCCOc1ccc(Cn2c(=O)sc3ccccc32)cc1OC,AC50,[1],"12.6 µM [falling, single point]"
O=C(NCc1ccc2c(c1)OCO2)c1cccc(C(=O)NCc2ccc3c(c2)OCO3)c1,AC50,[1],"6.31 µM [falling, partial curve]"
CCSc1ncc(Cl)c(C(=O)Nc2nc3ccc(S(C)(=O)=O)cc3s2)n1,AC50,[1],"0.0398 µM [falling, full curve]"
Cc1ccc(NC(=O)C2CCCN(S(=O)(=O)c3cccc4nsnc34)C2)cc1C (stereo not drawn),AC50,[1],"6.31 µM [falling, full curve]"
N#C/C(=C(/O)COC(=O)Cc1c[nH]c2ccccc12)c1nc2ccccc2[nH]1,AC50,[1],"20 µM [falling, single point]"
CC(C)OCCCNc1ncnc2sc3c(c12)CCCC3,AC50,[1],"15.8 µM [falling, single point]"
Cn1c(=O)c(C(=O)Nc2ccccn2)c(O)c2ccccc21,AC50,[1],"2.51 µM [falling, partial curve]"
Cc1ccc(C)c(N2CCN(C(=O)CN3C(=O)COc4ccc(S(=O)(=O)N5CCCC5)cc43)CC2)c1,AC50,[1],"25.1 µM [falling, partial curve, poor fit]"
CCc1cccc(NC(=O)CN(c2ccc(C)c(C)c2)S(=O)(=O)c2ccsc2C(=O)OC)c1,AC50,[1],"15.8 µM [falling, partial curve]"
CCOC(=O)c1ccc(N2C(=O)c3[nH]nc(-c4ccc(C)cc4)c3C2c2cccs2)cc1 (stereo not drawn),AC50,[1],"15.8 µM [falling, single point]"
CCCc1nc2nc(C)c(NS(=O)(=O)c3ccc(CC(C)C)cc3)c(=O)n2[nH]1,AC50,[1],"31.6 µM [falling, single point]"
O=S(=O)(c1ccc(Cl)cc1)c1nc(-c2cccs2)oc1SCc1ccc(F)cc1,AC50,[1],"0.0316 µM [falling, full curve, poor fit]"
COc1ccc(NS(=O)(=O)c2cc(C)ccc2NC(=O)c2cc(C)oc2C)cc1,AC50,[1],"3.16 µM [rising, full curve] [measured here: IkB-luc green channel]"
COc1ccc(OC)c(NC(=O)C2Cc3ccccc3CN2S(=O)(=O)c2ccc(F)cc2)c1 (stereo not drawn),AC50,[1],"25.1 µM [falling, single point]"
CCc1ccc(CNC(=O)c2cc3n(n2)CCCN(Cc2ccccc2)C3=O)cc1,AC50,[1],"20 µM [falling, single point]"
Cc1ccc(-n2ncc3c(NC(C)c4ccccc4)ncnc32)cc1 (stereo not drawn),AC50,[1],"25.1 µM [falling, single point]"
c1ccc(C(c2ccccc2)N2CCN(Cc3nnnn3C3CCCC3)CC2)cc1,AC50,[1],"25.1 µM [falling, single point]"
COc1ccc(NC(=O)Cn2c(=O)n(Cc3ccccc3OC)c(=O)c3cccnc32)cc1Cl,AC50,[1],"25.1 µM [falling, single point]"
COC(=O)CSc1nnc(CNc2ccc(F)cc2)o1,AC50,[1],"12.6 µM [falling, partial curve]"
COc1ccc(C2(Nc3cccc(F)c3)C(=O)c3ccccc3C2=O)cc1,AC50,[1],"0.398 µM [falling, partial curve, poor fit]"
COCCNC(=O)C1CCN(C(=O)c2cc3sccc3n2Cc2ccc(Cl)cc2)CC1,AC50,[1],"0.398 µM [falling, partial curve]"
O=C(c1nnc(Cc2ccc(Cl)cc2)o1)N1CCOCC1,AC50,[1],"6.31 µM [rising, single point]"
COc1ccccc1CCNC(=O)Cc1ccc(NC(=O)N2CCSc3ncccc32)cc1,AC50,[1],"39.8 µM [falling, single point]"
Cc1ccc2oc(-c3ccc(Cl)c(NC(=O)Cc4ccccc4)c3)nc2c1,AC50,[1],"20 µM [falling, single point]"
CCCNS(=O)(=O)c1cc(-c2nn3c(C)nnc3c3ccccc23)ccc1C,AC50,[1],"10 µM [rising, partial curve] [measured here: IkB-luc green channel]"
CC(=O)N1CCCc2cc(S(=O)(=O)N3CCCC(C(=O)NCc4ccccc4Cl)C3)ccc21 (stereo not drawn),AC50,[1],"2.51 µM [falling, partial curve, poor fit]"
CCOc1ccccc1NC(=O)C1CCN(S(=O)(=O)c2ccc3[nH]c(=O)oc3c2)CC1,AC50,[1],"25.1 µM [falling, single point]"
O=C(NCCN1CCN(c2ccccc2F)CC1)C1c2ccccc2C(=O)N2CCc3ccccc3C12 (stereo not drawn),AC50,[1],"10 µM [falling, partial curve]"
CC(C)(C)c1ccc(OCc2nc3ccccc3n2CCOc2ccccc2)cc1,AC50,[1],"20 µM [falling, partial curve]"
Cc1cccc(NC(=O)CSc2ncc(-c3ccccc3)[nH]2)c1C,AC50,[1],"10 µM [falling, partial curve]"
CCC(C(=O)NCCc1ccccc1)n1nc(C)c2sc3ccccc3c2c1=O (stereo not drawn),AC50,[1],"3.98 µM [falling, partial curve]"
CC(C)Nc1c(N)c(=O)oc2ccccc12,AC50,[1],"10 µM [falling, partial curve]"
COCCn1nnnc1C(c1cc2cc(C)cc(C)c2[nH]c1=O)N1CCN(c2ccccc2F)CC1 (stereo not drawn),AC50,[1],"10 µM [falling, partial curve]"
COc1ccc(-c2cc(C(=O)NCc3ccccc3)no2)cc1OC,AC50,[1],"1.26 µM [falling, full curve]"
Cc1ccc(N2C(=O)c3n[nH]c(C)c3C2c2ccc(Cl)cc2)cc1 (stereo not drawn),AC50,[1],"25.1 µM [falling, partial curve]"
Cc1ccc(CNC(=O)c2nn(-c3ccc(Cl)cc3)nc2CO)cc1,AC50,[1],"0.126 µM [rising, full curve]"
CCOC(=O)c1[nH]c2c(c1Cc1ccccc1OC)C(=O)CC(c1ccc(OC)cc1)C2 (stereo not drawn),AC50,[1],"3.16 µM [falling, full curve]"
CCOc1ccc(C2=CS/C(=C(\C#N)c3nnc4n3CCCCC4)N2CC)cc1,AC50,[1],"20 µM [falling, partial curve]"
CCOC(=O)c1ccccc1NC(=O)Cn1ncc2c1-c1ccccc1OC2,AC50,[1],"20 µM [falling, single point]"
Cc1ccc(NC(=O)Cn2nc(C(F)(F)F)c3c2CCCC3)cc1C,AC50,[1],"15.8 µM [falling, single point]"
N=C1N=C(N)c2cc3ccccc3cc21,AC50,[1],"39.8 µM [rising, partial curve] [measured here: IkB-luc green channel]"
Cc1ccsc1C=Nc1ccc(O)cc1,AC50,measured here: IkB-luc green channel,"3.98 µM [rising, single point]"
same,AC50,measured here: control luc red channel,"20 µM [falling, partial curve]"

# Quoted at random: 2 entries already listed.
smiles,measurement,setting,value
CCC(C)(C)n1nnnc1C(c1cc2ccc(C)cc2[nH]c1=O)N(Cc1cccnc1)Cc1ccco1 (stereo not drawn),AC50,[1],"25.1 µM [falling, partial curve]"
COc1ccccc1NC(=O)C1=C(C)Nc2nc(SCC(=O)c3ccc(C)cc3)nn2C1c1ccccc1C (stereo not drawn),AC50,[1],"0.251 µM [falling, full curve]"

# Part of the list above, tab-delimited:
smiles	measurement	setting	value
Cc1ccc(NC(=O)C2CCCN(S(=O)(=O)c3cccc4nsnc34)C2)cc1C (stereo not drawn)	AC50	[1]	6.31 µM [falling, full curve]
O=S(=O)(c1ccc(Cl)cc1)c1nc(-c2cccs2)oc1SCc1ccc(F)cc1	AC50	[1]	0.0316 µM [falling, full curve, poor fit]
